Data on two molecules can be found in paper doi:10.1101/2022.05.12.491601.

Results are given in words; binding and its absence hold for the method and conditions named. In cells and extracts the contact can be indirect. Some binding calls cover weakened binding; strength is not graded here.

Test [1] concerns the target T1, P2X4 receptor (mouse (endogenous in BMDM)) (UniProt Q9JJX6).
T1 sequence: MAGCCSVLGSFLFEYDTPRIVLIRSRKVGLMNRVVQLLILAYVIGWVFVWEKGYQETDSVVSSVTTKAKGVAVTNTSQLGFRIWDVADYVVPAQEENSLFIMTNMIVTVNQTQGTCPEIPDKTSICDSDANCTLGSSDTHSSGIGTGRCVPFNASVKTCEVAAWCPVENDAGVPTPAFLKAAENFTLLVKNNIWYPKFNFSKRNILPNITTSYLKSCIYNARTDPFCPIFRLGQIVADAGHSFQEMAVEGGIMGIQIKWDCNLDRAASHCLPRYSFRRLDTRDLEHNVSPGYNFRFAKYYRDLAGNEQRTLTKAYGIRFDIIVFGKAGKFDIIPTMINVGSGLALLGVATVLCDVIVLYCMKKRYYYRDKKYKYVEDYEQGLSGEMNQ
As to the kind of experiment: co-IP.

The target in test [2] is T2, ApoE (mouse (endogenous in BMDM)) (UniProt P08226).
T2 sequence: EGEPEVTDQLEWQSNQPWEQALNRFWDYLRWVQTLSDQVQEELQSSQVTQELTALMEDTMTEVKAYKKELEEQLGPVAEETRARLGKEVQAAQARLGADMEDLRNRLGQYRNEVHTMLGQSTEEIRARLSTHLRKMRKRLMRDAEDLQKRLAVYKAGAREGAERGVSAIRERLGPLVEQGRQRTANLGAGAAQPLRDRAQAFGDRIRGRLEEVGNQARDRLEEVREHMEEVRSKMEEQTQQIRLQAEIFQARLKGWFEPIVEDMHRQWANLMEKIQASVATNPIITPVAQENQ
Put plainly: co-IP.

B1: ApoE (protein, UniProt P08226 19-311)
chain: EGEPEVTDQLEWQSNQPWEQALNRFWDYLRWVQTLSDQVQEELQSSQVTQELTALMEDTMTEVKAYKKELEEQLGPVAEETRARLGKEVQAAQARLGADMEDLRNRLGQYRNEVHTMLGQSTEEIRARLSTHLRKMRKRLMRDAEDLQKRLAVYKAGAREGAERGVSAIRERLGPLVEQGRQRTANLGAGAAQPLRDRAQAFGDRIRGRLEEVGNQARDRLEEVREHMEEVRSKMEEQTQQIRLQAEIFQARLKGWFEPIVEDMHRQWANLMEKIQASVATNPIITPVAQENQ
Turning to B1, the binding entry in test [1] is on record as “binds”.

B2: P2X4 receptor (receptor, UniProt Q9JJX6 1-388)
chain: MAGCCSVLGSFLFEYDTPRIVLIRSRKVGLMNRVVQLLILAYVIGWVFVWEKGYQETDSVVSSVTTKAKGVAVTNTSQLGFRIWDVADYVVPAQEENSLFIMTNMIVTVNQTQGTCPEIPDKTSICDSDANCTLGSSDTHSSGIGTGRCVPFNASVKTCEVAAWCPVENDAGVPTPAFLKAAENFTLLVKNNIWYPKFNFSKRNILPNITTSYLKSCIYNARTDPFCPIFRLGQIVADAGHSFQEMAVEGGIMGIQIKWDCNLDRAASHCLPRYSFRRLDTRDLEHNVSPGYNFRFAKYYRDLAGNEQRTLTKAYGIRFDIIVFGKAGKFDIIPTMINVGSGLALLGVATVLCDVIVLYCMKKRYYYRDKKYKYVEDYEQGLSGEMNQ
For B2, the binding entry in test [2] is listed as “binds”.
